Where no unit stands, none is given here, and values compare only within one read-out.
How the values were obtained:
[1] = Serum ethanolamine phospholipid levels in human cohorts (dementia severity, post-mortem pathology, age) by flow-injection MS/MS
[2] = Serum ethanolamine phospholipid ratios to PtdEt 16:0/18:0 (M01) in human cohorts
[3] = serum, females, post mortem SDAT
[4] = serum, females, post mortem control

CCCCCCCCCCCCCCCCCC(=O)OC[C@H](COP(=O)(O)OCCN)OC(=O)CCCCCCCCCCCCCCCCC [Metabolite M03, PtdEt 18:0/18:0]
Ratio of serum levels ([1]; AD, All to CN, Male): 0.769
Ratio of serum levels ([1]; ADAS 5-19 to CN, Male): 0.836
Ratio of serum levels ([1]; ADAS 20-39 to 5-19, Male): 0.880
Ratio of serum levels ([1]; ADAS 20-39 to CN, Male): 0.735
Ratio of serum levels ([1]; ADAS 40-70 to 5-19, Male): 0.784
Ratio of serum levels ([1]; ADAS 40-70 to 20-39, Male): 0.891
Ratio of serum levels ([1]; ADAS 40-70 to CN, Male): 0.655
Serum level, Mean ([1]; Cognitive Normal, Female): 0.099
Average serum level, Mean ([1]; Cognitive Normal, Male): 0.109
Serum level, Mean ([1]; Post Mortem Ctl, Male): 0.059
Serum level, Mean ([1]; Post Mortem SDAT Male): 0.036
Ratio of serum levels ([1]; Post mortem SDAT vs Control, Male): 0.610
Serum level, Mean ([1]; SDAT, ADAS 5-19, Female): 0.080
Average serum level, Mean ([1]; SDAT, ADAS 5-19, Male): 0.091
Serum level, Mean ([1]; SDAT, ADAS 20-39, Female): 0.076
Average serum level, Mean ([1]; SDAT, ADAS 20-39, Male): 0.080
Serum level, Mean ([1]; SDAT, ADAS 40-70, Female): 0.073
Average serum level, Mean ([1]; SDAT, ADAS 40-70, Male): 0.072
Serum level, Mean ([1]; SDAT_all, Female): 0.076
Average serum level, Mean ([1]; SDAT_all, Male): 0.084
Ratio, ADAS 5-19 to CN, Female ([1]; serum level ratio, females, ADAS 5-19 vs CN): 0.814
Ratio, ADAS 20-39 to 5-19, Female ([1]; serum level ratio, females, ADAS 20-39 vs ADAS 5-19): 0.951
Ratio, ADAS 20-39 to CN, Female ([1]; serum level ratio, females, ADAS 20-39 vs CN): 0.775
Ratio, ADAS 40-70 to 5-19, Female ([1]; serum level ratio, females, ADAS 40-70 vs ADAS 5-19): 0.906
Ratio, ADAS 40-70 to 20-39, Female ([1]; serum level ratio, females, ADAS 40-70 vs ADAS 20-39): 0.952
Ratio, ADAS 40-70 to CN, Female ([1]; serum level ratio, females, ADAS 40-70 vs CN): 0.737
Ratio, 50-59 vs. 40-49, Female ([1]; serum level ratio, females, age 50-59 vs 40-49): 0.927
Ratio, 60-69 vs. 40-49, Female ([1]; serum level ratio, females, age 60-69 vs 40-49): 0.906
Ratio, 70+ vs. 40-49, Female ([1]; serum level ratio, females, age 70+ vs 40-49): 0.989
Ratio, AD, All to CN, Female ([1]; serum level ratio, females, all AD vs cognitively normal): 0.772
Ratio, Autopsy AD vs. Control, Female ([1]; serum level ratio, females, autopsy AD vs control): 0.619
Ratio, 50-59 vs. 40-49, Male ([1]; serum level ratio, males, age 50-59 vs 40-49): 1.125
Ratio, 60-69 vs. 40-49, Male ([1]; serum level ratio, males, age 60-69 vs 40-49): 1.213
Ratio, 70+ vs. 40-49, Male ([1]; serum level ratio, males, age 70+ vs 40-49): 1.296
Mean serum level, Age Ctl, 30-39, Female ([1]; serum, females, age 30-39): 0.095
Mean serum level, Age Ctl, 40-49, Female ([1]; serum, females, age 40-49): 0.101
Mean serum level, Age Ctl, 50-59, Female ([1]; serum, females, age 50-59): 0.093
Mean serum level, Age Ctl, 60-69, Female ([1]; serum, females, age 60-69): 0.091
Mean serum level, Age Ctl, 70+, Female ([1]; serum, females, age 70+): 0.100
Mean serum level, Post Mortem SDAT, Female [1, 3]: 0.043
Mean serum level, Post Mortem Ctl, Female [1, 4]: 0.070
Mean serum level, Age Ctl, 30-39, Male ([1]; serum, males, age 30-39): 0.102
Mean serum level, Age Ctl, 40-49, Male ([1]; serum, males, age 40-49): 0.085
Mean serum level, Age Ctl, 50-59, Male ([1]; serum, males, age 50-59): 0.095
Mean serum level, Age Ctl, 60-69, Male ([1]; serum, males, age 60-69): 0.103
Mean serum level, Age Ctl, 70+, Male ([1]; serum, males, age 70+): 0.110
Ratio of ethanolamine phospholipid ratios to M01 between cohorts ([2]; AD, All to CN, Male): 0.742
Ratio of ethanolamine phospholipid ratios to M01 between cohorts ([2]; ADAS 5-19 to CN, Male): 0.812
Ratio of ethanolamine phospholipid ratios to M01 between cohorts ([2]; ADAS 20-39 to CN, Male): 0.724
Ratio of ethanolamine phospholipid ratios to M01 between cohorts ([2]; ADAS 40-70 to CN, Male): 0.643
Average serum ethanolamine phospholipid ratio to M01, Mean ([2]; Cognitive Normal, Male, serum): 0.960
Average serum ethanolamine phospholipid ratio to M01, Mean ([2]; SDAT, ADAS 5-19, Male, serum): 0.779
Average serum ethanolamine phospholipid ratio to M01, Mean ([2]; SDAT, ADAS 20-39, Male, serum): 0.694
Average serum ethanolamine phospholipid ratio to M01, Mean ([2]; SDAT, ADAS 40-70, Male, serum): 0.617
Average serum ethanolamine phospholipid ratio to M01, Mean ([2]; SDAT_all, Male, serum): 0.712
Ethanolamine Phospholipid Ratio to M01, Mean, Age Ctl, 30-39, Female ([2]; human serum, females aged 30-39): 0.931
Ethanolamine Phospholipid Ratio to M01, Mean, Age Ctl, 40-49, Female ([2]; human serum, females aged 40-49): 0.911
Ethanolamine Phospholipid Ratio to M01, Mean, Age Ctl, 50-59, Female ([2]; human serum, females aged 50-59): 0.926
Ratio of Ethanolamine Phospholipid Ratio to M01, 50-59 vs. 40-49, Female ([2]; human serum, females aged 50-59 vs. females aged 40-49): 1.017
Ethanolamine Phospholipid Ratio to M01, Mean, Age Ctl, 60-69, Female ([2]; human serum, females aged 60-69): 0.750
Ratio of Ethanolamine Phospholipid Ratio to M01, 60-69 vs. 40-49, Female ([2]; human serum, females aged 60-69 vs. females aged 40-49): 0.823
Ethanolamine Phospholipid Ratio to M01, Mean, Age Ctl, 70+_Female ([2]; human serum, females aged 70+): 0.838
Ratio of Ethanolamine Phospholipid Ratio to M01, 70+ vs. 40-49, Female ([2]; human serum, females aged 70+ vs. females aged 40-49): 0.920
Ratio of Ethanolamine Phospholipid Ratio to M01, 50-59 vs. 40-49, Male ([2]; human serum, males aged 50-59 vs. males aged 40-49): 1.149
Ratio of Ethanolamine Phospholipid Ratio to M01, 60-69 vs. 40-49, Male ([2]; human serum, males aged 60-69 vs. males aged 40-49): 1.054
Ratio of Ethanolamine Phospholipid Ratio to M01, 70+ vs. 40-49, Male ([2]; human serum, males aged 70+ vs. males aged 40-49): 1.128
Ratio of ethanolamine phospholipid ratio to M01, ADAS 5-19 to CN, Female ([2]; serum, females, ADAS 5-19 vs cognitive normal): 0.871
Ratio of ethanolamine phospholipid ratio to M01, ADAS 20-39 to 5-19, Female ([2]; serum, females, ADAS 20-39 vs ADAS 5-19): 0.949
Ratio of ethanolamine phospholipid ratio to M01, ADAS 20-39 to CN, Female ([2]; serum, females, ADAS 20-39 vs cognitive normal): 0.826
Ratio of ethanolamine phospholipid ratio to M01, ADAS 40-70 to 5-19, Female ([2]; serum, females, ADAS 40-70 vs ADAS 5-19): 0.841
Ratio of ethanolamine phospholipid ratio to M01, ADAS 40-70 to 20-39, Female ([2]; serum, females, ADAS 40-70 vs ADAS 20-39): 0.887
Ratio of ethanolamine phospholipid ratio to M01, ADAS 40-70 to CN, Female ([2]; serum, females, ADAS 40-70 vs cognitive normal): 0.732
Ethanolamine phospholipid ratio to M01, Mean, SDAT, ADAS 5-19, Female ([2]; serum, females, SDAT ADAS 5-19): 0.742
Ethanolamine phospholipid ratio to M01, Mean, SDAT, ADAS 20-39, Female ([2]; serum, females, SDAT ADAS 20-39): 0.704
Ethanolamine phospholipid ratio to M01, Mean, SDAT, ADAS 40-70, Female ([2]; serum, females, SDAT ADAS 40-70): 0.624
Ratio of ethanolamine phospholipid ratio to M01, AD, All to CN, Female ([2]; serum, females, all AD vs cognitive normal): 0.806
Ethanolamine phospholipid ratio to M01, Mean, SDAT_all Female ([2]; serum, females, all SDAT): 0.687
Ratio of ethanolamine phospholipid ratio to M01, Autopsy AD vs. Control, Female ([2]; serum, females, autopsy AD vs post mortem control): 0.902
Ethanolamine phospholipid ratio to M01, Mean, Cognitive Normal, Female ([2]; serum, females, cognitive normal): 0.852
Ethanolamine phospholipid ratio to M01, Mean, Post Mortem SDAT Female [2, 3]: 0.361
Ethanolamine phospholipid ratio to M01, Mean, Post Mortem Ctl, Female [2, 4]: 0.400
Ratio of ethanolamine phospholipid ratio to M01, ADAS 20-39 to 5-19, Male ([2]; serum, males, SDAT ADAS 20-39 vs ADAS 5-19): 0.891
Ratio of ethanolamine phospholipid ratio to M01, ADAS 40-70 to 5-19, Male ([2]; serum, males, SDAT ADAS 40-70 vs ADAS 5-19): 0.792
Ratio of ethanolamine phospholipid ratio to M01, ADAS 40-70 to 20-39, Male ([2]; serum, males, SDAT ADAS 40-70 vs ADAS 20-39): 0.888
Ethanolamine phospholipid ratio to M01, Mean, Age Ctl, 30-39, Male ([2]; serum, males, age control 30-39): 0.863
Ethanolamine phospholipid ratio to M01, Mean, Age Ctl, 40-49, Male ([2]; serum, males, age control 40-49): 0.751
Ethanolamine phospholipid ratio to M01, Mean, Age Ctl, 50-59, Male ([2]; serum, males, age control 50-59): 0.864
Ethanolamine phospholipid ratio to M01, Mean, Age Ctl, 60-69, Male ([2]; serum, males, age control 60-69): 0.792
Ethanolamine phospholipid ratio to M01, Mean, Age Ctl, 70+_Male ([2]; serum, males, age control 70+): 0.848
Ethanolamine phospholipid ratio to M01, Mean, Post Mortem SDAT Male ([2]; serum, males, post mortem SDAT): 0.391
Ratio of ethanolamine phospholipid ratio to M01, SDAT vs Control (post mortem, males) ([2]; serum, males, post mortem SDAT vs post mortem control): 0.811
Ethanolamine phospholipid ratio to M01, Mean, Post Mortem Ctl, Male ([2]; serum, males, post mortem control): 0.482
